In paper PMC3445477 one finds binding data, which are given here for one molecule.

No constants are given. Whether binding was seen depends on the method and setting. Some binding calls cover weakened binding; strength is not graded here.

The target of assay [1] is T1, SrfH Asp103 (srfH allele of S. Typhimurium SL1344) (Salmonella enterica serovar Typhimurium SL1344) (UniProt Q8ZQ79).
T1 sequence: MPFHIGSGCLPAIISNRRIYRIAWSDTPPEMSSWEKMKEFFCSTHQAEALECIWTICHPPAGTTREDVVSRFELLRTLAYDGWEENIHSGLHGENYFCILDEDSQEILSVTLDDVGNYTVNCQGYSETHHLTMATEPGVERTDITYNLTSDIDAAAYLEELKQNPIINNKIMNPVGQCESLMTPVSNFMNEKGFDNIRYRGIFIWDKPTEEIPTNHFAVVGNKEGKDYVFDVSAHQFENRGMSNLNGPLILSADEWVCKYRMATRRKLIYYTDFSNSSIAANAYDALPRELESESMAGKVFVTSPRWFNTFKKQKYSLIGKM
Briefly: two-hybrid; Hybrid Hunter yeast two-hybrid kit (Invitrogen); SrfH fused to LexA as bait, full-length TRIP6 as prey; beta-galactosidase activity as read-out, cultures grown at 30°C.

Assay [2] concerns the target SrfH Gly103 (srfH allele of S. Typhimurium 14028s) (Salmonella enterica serovar Typhimurium 14028s) (UniProt Q8ZQ79). Described as above.

B1: TRIP6 (protein, UniProt Q15654 1-476)
chain: MSGPTWLPPKQPEPARAPQGRAIPRGTPGPPPAHGAALQPHPRVNFCPLPSEQCYQAPGGPEDRGPAWVGSHGVLQHTQGLPADRGGLRPGSLDAEIDLLSSTLAELNGGRGHASRRPDRQAYEPPPPPAYRTGSLKPNPASPLPASPYGGPTPASYTTASTPAGPAFPVQVKVAQPVRGCGPPRRGASQASGPLPGPHFPLPGRGEVWGPGYRSQREPGPGAKEEAAGVSGPAGRGRGGEHGPQVPLSQPPEDELDRLTKKLVHDMNHPPSGEYFGQCGGCGEDVVGDGAGVVALDRVFHVGCFVCSTCRAQLRGQHFYAVERRAYCEGCYVATLEKCATCSQPILDRILRAMGKAYHPGCFTCVVCHRGLDGIPFTVDATSQIHCIEDFHRKFAPRCSVCGGAIMPEPGQEETVRIVALDRSFHIGCYKCEECGLLLSSEGECQGCYPLDGHILCKACSAWRIQELSATVTTDC
With B1, the binding entry in assay [1] is listed as “no binding”; in assay [2] it was “binds”.
